{"source": "paper PMC11971462", "about": "“Generation and validation of a novel multitarget small molecule in glioblastoma” (Cell Death & Disease, 2025)", "tested_on": "GNS166 cells", "assay": "Label-free proteomics differential expression", "assay_type": "cell-based, human", "details": "GNS166, 5 µM, 48 h; p < 0.05", "procedure": "Proteomic studies were performed by the Proteomics Facility of the CIC bioGUNE by label-free relative quantification on nLC MS/MS. […] In both approaches, the top 20 enriched terms were plotted and the pathways were clustered using divisive hierarchical clustering based on pairwise Jaccard distances.", "data": [{"smiles": "C#CCN(Cc1cc2cc(OCCCN3CCCCC3)ccc2n1S(=O)(=O)c1ccccc1)C(=O)CCCCCCC(=O)NO", "note": "[DDI199]", "values": [{"measurement": "Number of downregulated proteins (proteomics)", "value": 391}, {"measurement": "Number of upregulated proteins (proteomics)", "value": 217}]}]}
